Experimental data: patent US20190307798A1
No constants are given. Whether binding was seen depends on the method and setting. Some results given as binding are weak or reduced against the parent protein; the word gives no strength.

Target: Hepatitis B virus surface antigen (HBsAg) (Hepatitis B virus) (UniProt P03138)
Test: electron microscopy count of HBsAg particles left in HepG2.2.15-conditioned media 24 hours after exposure to CAR T-cells (depletion against Ctrl-G4m-CAR T-cells)

binding: binds
B1: XTL19 - IgG4m - CD28 - Zeta chimeric antigen receptor (protein)
chain: QVQLVESGGGVVQPGGSLRLSCAPSGFVFRSYGMHWVRQTPGKGLEWVSLIWHDGSNRFYADSVKGRFTISRDNSKNTLYLQMNSLRAEDTAMYFCARERLIAAPAAFDLWGQGTLVTVSSGGGGSGGGGSGGGGSSYVLTQPPSVSVAPGKTARISCGGNNIGTKNVHWYQQKPGQAPVLVVYADSDRPSGIPERFSGSNSGNTATLTISRVEVGDEADYYCQVWDSVSYHVVFGGGTTLTVLGSGGGGSESKYGPPCPSCPAPPVAGPSVFLFPPKPKDTLMISRTPEVTCVVVDVSQEDPEVQFNWYVDGVEVHNAKTKPREEQFQSTYRVVSVLTVLHQDWLNGKEYKCKVSNKGLPSSIEKTISKAKGQPREPQVYTLPPSQEEMTKNQVSLTCLVKGFYPSDIAVEWESNGQPENNYKTTPPVLDSDGSFFLYSRLTVDKSRWQEGNVFSCSVMHEALHNHYTQKSLSLSPGKKDPKFWVLVVVGGVLACYSLLVTVAFIIRVKFSRSADAPAYQQGQNQLYNELNLGRREEYDVLDKRRGRDPEMGGKPRRKNPQEGLYNELQKDKMAEAYSEIGMKGERRRGKGHDGLYQGLSTATKDTYDALHMQALPPR
